# Publication PMC8956710
# The chains behind the UniProt entries cited, without tags or fusion partners. Where a name states a change or a piece, a line headed by the entry shows the natural chain unless it says otherwise.
# UniProt Q5XUX0: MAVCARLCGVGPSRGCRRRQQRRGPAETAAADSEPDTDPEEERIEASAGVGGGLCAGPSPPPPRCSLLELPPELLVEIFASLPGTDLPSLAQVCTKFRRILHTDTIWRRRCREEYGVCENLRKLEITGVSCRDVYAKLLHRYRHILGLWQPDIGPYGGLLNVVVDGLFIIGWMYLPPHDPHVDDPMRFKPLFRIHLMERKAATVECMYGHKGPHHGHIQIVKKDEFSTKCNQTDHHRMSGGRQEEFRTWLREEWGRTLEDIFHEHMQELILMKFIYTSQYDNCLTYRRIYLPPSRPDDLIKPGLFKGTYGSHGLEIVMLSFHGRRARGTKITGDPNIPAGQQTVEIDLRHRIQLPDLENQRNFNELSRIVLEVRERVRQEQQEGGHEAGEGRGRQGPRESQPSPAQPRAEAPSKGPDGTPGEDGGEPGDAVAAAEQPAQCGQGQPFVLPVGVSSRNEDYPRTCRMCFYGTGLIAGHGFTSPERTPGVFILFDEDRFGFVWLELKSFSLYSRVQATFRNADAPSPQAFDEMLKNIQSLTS
# Target: T1, Flag-STYX (serine/threonine/tyrosine interacting protein) (UniProt Q8WUJ0)
# T1 sequence: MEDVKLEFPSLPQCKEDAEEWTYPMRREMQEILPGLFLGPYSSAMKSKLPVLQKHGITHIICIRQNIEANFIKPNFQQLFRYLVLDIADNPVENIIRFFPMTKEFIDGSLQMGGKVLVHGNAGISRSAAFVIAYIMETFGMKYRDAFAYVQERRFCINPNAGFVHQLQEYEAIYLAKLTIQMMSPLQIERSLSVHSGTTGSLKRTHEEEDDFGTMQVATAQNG
# Assay: co-IP; SGC-7901 cells co-transfected with expression vectors for 48 h, lysed with IP lysis buffer; about 1 mg total protein with 5 µg anti-Flag or anti-Myc antibody or IgG overnight at 4 °C, Protein A/G PLUS agarose beads, western blot
substance,measurement,value
Myc-FBXO31ΔF (F-box domain deletion mutant) (from UniProt Q5XUX0),binding,no binding

# Results are given in words; binding and its absence hold for the method and conditions named. In cells and extracts the contact can be indirect. Sequences can lack the tags named with a protein.
